Read-outs that look alike come from different tables or passages of the source. Results are given in words; binding and its absence hold for the method and conditions named. In cells and extracts the contact can be indirect. Some binding calls cover weakened binding; strength is not graded here.
T1: CAPRIN1 (human (cDNA from HEK293T)) (UniProt Q14444)
T1 sequence: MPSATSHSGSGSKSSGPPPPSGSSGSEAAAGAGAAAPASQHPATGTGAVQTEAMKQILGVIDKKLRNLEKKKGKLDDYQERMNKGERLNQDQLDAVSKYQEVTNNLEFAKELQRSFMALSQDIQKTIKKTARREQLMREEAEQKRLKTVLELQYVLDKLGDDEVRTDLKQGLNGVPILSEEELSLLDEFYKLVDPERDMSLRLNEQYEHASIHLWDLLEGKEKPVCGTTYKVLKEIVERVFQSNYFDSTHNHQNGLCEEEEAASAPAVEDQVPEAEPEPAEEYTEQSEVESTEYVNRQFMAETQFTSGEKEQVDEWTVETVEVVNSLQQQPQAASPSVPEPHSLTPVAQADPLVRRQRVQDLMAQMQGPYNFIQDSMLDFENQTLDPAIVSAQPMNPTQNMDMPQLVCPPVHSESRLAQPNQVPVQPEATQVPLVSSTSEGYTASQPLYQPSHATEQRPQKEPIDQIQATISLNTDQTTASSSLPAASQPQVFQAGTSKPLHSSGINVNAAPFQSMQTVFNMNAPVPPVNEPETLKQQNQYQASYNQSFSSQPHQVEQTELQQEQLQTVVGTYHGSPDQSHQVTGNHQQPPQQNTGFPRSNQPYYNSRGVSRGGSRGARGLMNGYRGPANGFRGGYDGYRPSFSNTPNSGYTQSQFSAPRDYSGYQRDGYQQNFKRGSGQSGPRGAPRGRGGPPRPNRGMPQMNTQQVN

Sequences of proteins named here, by UniProt entry; tags and fusion partners are left off.
UniProt Q86U44: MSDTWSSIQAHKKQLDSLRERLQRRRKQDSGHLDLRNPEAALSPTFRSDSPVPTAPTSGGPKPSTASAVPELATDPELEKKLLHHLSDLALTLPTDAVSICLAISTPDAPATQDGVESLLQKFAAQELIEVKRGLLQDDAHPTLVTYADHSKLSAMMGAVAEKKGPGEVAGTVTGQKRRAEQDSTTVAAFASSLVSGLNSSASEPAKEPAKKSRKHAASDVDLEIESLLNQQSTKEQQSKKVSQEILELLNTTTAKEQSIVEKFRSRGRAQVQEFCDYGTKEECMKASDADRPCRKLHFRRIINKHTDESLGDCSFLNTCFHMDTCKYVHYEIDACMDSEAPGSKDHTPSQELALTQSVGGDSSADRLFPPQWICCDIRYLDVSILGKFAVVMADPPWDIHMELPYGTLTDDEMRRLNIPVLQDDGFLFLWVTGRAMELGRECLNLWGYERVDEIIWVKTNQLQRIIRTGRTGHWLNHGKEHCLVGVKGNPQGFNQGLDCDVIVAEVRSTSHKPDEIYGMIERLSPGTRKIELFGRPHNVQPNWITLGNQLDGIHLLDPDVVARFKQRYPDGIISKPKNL

T2: TRA2A (human (cDNA from HEK293T)) (UniProt Q13595)
T2 sequence: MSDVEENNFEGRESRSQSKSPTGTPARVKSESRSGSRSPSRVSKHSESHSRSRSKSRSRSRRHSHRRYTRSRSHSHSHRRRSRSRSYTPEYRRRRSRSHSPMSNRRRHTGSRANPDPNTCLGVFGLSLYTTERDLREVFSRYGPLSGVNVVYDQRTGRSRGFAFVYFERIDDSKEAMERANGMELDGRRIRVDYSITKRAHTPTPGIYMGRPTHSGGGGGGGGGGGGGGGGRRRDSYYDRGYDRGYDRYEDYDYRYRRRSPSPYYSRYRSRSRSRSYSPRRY


Tests used:
Test in all cases: co-IP; Flag-tagged RBP precipitated with FLAG beads from sonicated RIPA lysate, overnight at 4°C; washed three times in E1A lysis buffer (250 mM NaCl, 50 mM HEPES pH 7.5, 0.1% NP-40, 5 mM EDTA); blots for METTL3, METTL14, FTO, ALKBH5; with and without RNase treatment (TRA2A, CAPRIN1)
[1] = target: T1, CAPRIN1 (human (cDNA from HEK293T))
[2] = target: T2, TRA2A (human (cDNA from HEK293T))
[3] = target: T1, CAPRIN1 (human (cDNA from HEK293T)); remark: listed apart in the source

binding [1] | binding [2] | binding [3] | Molecule
binds | binds |  | METTL3 (from UniProt Q86U44 1-580)
 |  | binds | METTL14 (protein, UniProt Q9HCE5 1-456) MDSRLQEIRERQKLRRQLLAQQLGAESADSIGAVLNSKDEQREIAETRETCRASYDTSAPNAKRKYLDEGETDEDKMEEYKDELEMQQDEENLPYEEEIYKDSSTFLKGTQSLNPHNDYCQHFVDTGHRPQNFIRDVGLADRFEEYPKLRELIRLKDELIAKSNTPPMYLQADIEAFDIRELTPKFDVILLEPPLEEYYRETGITANEKCWTWDDIMKLEIDEIAAPRSFIFLWCGSGEGLDLGRVCLRKWGYRRCEDICWIKTNKNNPGKTKTLDPKAVFQRTKEHCLMGIKGTVKRSTDGDFIHANVDIDLIITEEPEIGNIEKPVEIFHIIEHFCLGRRRLHLFGRDSTIRPGWLTVGPTLTNSNYNAETYASYFSAPNSYLTGCTEEIERLRPKSPPPKSKSDRGGGAPRGGGRGGTSAGRGRERNRSNFRGERGGFRGGRGGAHRGGFPPR

From publication PMC7038928
